The text below walks through data of doi:10.1101/2023.08.09.552599.

Sequences of proteins named here, by UniProt entry; tags and fusion partners are left off. A change or cut given only in a name is not applied to a line headed by its entry. A line that says so, or that is headed by a name, gives the form on record, which may keep a tag or linker.
UniProt O95166: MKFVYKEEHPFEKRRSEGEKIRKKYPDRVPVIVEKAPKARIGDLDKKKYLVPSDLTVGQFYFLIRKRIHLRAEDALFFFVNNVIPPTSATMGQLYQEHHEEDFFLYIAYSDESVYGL
UniProt Q9GZM5: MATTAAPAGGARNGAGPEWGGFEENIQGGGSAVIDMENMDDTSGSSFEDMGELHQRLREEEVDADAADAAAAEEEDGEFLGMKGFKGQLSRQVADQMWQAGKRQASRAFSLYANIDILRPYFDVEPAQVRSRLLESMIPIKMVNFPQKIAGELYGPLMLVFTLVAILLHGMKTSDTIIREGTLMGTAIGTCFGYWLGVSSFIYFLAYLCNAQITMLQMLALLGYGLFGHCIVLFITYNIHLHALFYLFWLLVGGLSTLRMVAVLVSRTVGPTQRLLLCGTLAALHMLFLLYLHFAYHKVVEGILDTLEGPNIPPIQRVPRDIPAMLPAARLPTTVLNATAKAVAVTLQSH
FLAG–YIPF3LIR2 A_3 (Y121Z, V124A) (Q9GZM5, form named): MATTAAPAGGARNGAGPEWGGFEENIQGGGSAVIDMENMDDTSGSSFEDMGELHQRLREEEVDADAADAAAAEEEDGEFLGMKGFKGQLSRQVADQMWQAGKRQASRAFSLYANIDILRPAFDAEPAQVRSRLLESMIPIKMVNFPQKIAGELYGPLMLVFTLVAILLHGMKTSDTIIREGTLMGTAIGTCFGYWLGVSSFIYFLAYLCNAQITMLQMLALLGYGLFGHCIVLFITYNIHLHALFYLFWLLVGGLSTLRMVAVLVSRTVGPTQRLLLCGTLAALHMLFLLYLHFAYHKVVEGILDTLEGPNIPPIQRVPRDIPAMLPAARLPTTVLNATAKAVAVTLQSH
UniProt Q9BSR8: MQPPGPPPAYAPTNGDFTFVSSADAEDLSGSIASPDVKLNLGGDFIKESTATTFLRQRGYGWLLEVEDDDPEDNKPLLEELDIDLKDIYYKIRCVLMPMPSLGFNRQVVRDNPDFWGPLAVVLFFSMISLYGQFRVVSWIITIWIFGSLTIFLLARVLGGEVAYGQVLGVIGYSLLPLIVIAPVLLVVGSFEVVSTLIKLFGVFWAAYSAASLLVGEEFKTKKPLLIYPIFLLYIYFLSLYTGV

No constants are given. Whether binding was seen depends on the method and setting. In cells and extracts the contact can be indirect. Some results given as binding are weak or reduced against the parent protein; the word gives no strength.

Assay in all cases: co-IP
One test has as its target FLAG-tagged GABARAP (UniProt O95166).
A further test concerns the target FLAG–YIPF3 (human) (UniProt Q9GZM5).
Test [1] has as its target FLAG–YIPF3LIR2 A_3 (Y121Z, V124A) (human) (UniProt Q9GZM5).
Test [2] deals with FLAG–YIPF3LIR2A_1 (F47A, M50A) (human) (UniProt Q9GZM5).
Test [3] concerns the target FLAG–YIPF3LIR2A_2 (Y112A, I115A) (human) (UniProt Q9GZM5).

For the substance “endogenous YIPF4 (from UniProt Q9BSR8 1-244)”, the binding result is recorded as “no binding” with FLAG-tagged GABARAP; “binds” with FLAG–YIPF3 (human); “binds” in test [1]; “binds” in test [2]; “binds” in test [3].

With “endogenous YIPF3 (from UniProt Q9GZM5 1-350)”, the binding result in the test with FLAG-tagged GABARAP is reported as “binds”.
